Results from PubChem BioAssay AID1347426 (Functional Genomics Laboratory (NCATS/FGL), 2020).
Hit rate of the full screen: of about 31,000 sequences, about 1,400 (4.5%) were called active.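 Rule for the calls: active = median seed-adjusted z-score above 1 or below -1; inactive = the rest.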 The list shows a part of the results.

Test: Novel Modifiers of Survival Motor Neuron (SMN) Protein: Gene Identification via Genome-wide siRNA Screen;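 note: luminescence tracks full-length SMN protein made from the SMN2 reporter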
Conditions: HEK293T SMN2-luciferase reporter, siRNA knockdown, 72 h; actives lie on both sides
In short: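 HEK293T cells stably carrying an SMN2 promoter/splicing cassette–luciferase reporter were reverse-transfected with 1 pmol siRNA per well (druggable-genome library, 3 siRNAs per gene) and grown 72 h at 37 °C. Luminescence, normalized to negative-control siRNA and log10-transformed, was scored as MAD.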

Row | Sequence | median seed-adjusted z-score
1 | GCAUUUCCGCGAGUGAGAATT against UCKL1 | inactive: 0.695
2 | CGAUUCUACUGGAUGCAUUTT against SNUPN | inactive: -0.199
3 | GGUCAAAUGAAGAUAGAUUTT against MOV10L1 | inactive: -0.0497
4 | GAUGAAUUCUGGAGACGAUTT against PROZ | inactive: -0.422
5 | CGAGGACACUCAAACGGAUTT against TAF7L | inactive: -0.14
6 | AACUUACAGAGAAAGAAUUTT against RCVRN | inactive: 0.562
7 | AGCGAUCCAAGUUCAAGAATT against DLX1 | inactive: 0.0356
8 | CCCAGGCCGUAUUCCAGAATT against RABGGTA | inactive: -0.0601
9 | GGAUAUGGUGAGAAUAGAATT against MTHFS | inactive: 0.166
10 | GCUUCAUUGAGGACCCUGATT against PLEKHJ1 | inactive: -0.213
11 | CCUCCGGAGAGAAAAAUGATT against NXF2 | inactive: -0.0513
12 | GGAACCAUCGCAAAAUUAUTT against ZNF625 | inactive: -0.0711
13 | GCACGACGGUUUUCCUAGATT against LRRN1 | inactive: -0.407
14 | GCAUAUACCCGCAUAGUUUTT against SPAM1 | inactive: 0.518
15 | GCUUGUGGUUUCACCCUGATT against NME1 | inactive: 0.188
16 | GGGUCUUACGAAUGCGGAATT against ZNF618 | inactive: 0.311
17 | CUCUGGUGGUGGACGUUAATT against TYMP | inactive: -0.249
18 | CACUAGUUCUAUGACCAUUTT against IMPG1 | inactive: -0.252
19 | GCAUGUCGGGUUAUUAGAATT against PCCA | inactive: 0
20 | AGACAUGCUUCGGAAGGAUTT against TGIF2 | inactive: -0.304
21 | GGUGCUACGUGGUGAAGGATT against HGFAC | inactive: 0.021
22 | ACAUCCUUAUCGACCUCAATT against PIM1 | inactive: -0.409

Laid out differently: results already given

| Row | Sequence | median seed-adjusted z-score |
| --- | --- | --- |
| 2 | CGAUUCUACUGGAUGCAUUTT against SNUPN | inactive: -0.199 |
| 10 | GCUUCAUUGAGGACCCUGATT against PLEKHJ1 | inactive: -0.213 |

Continuation.

Row | Sequence | median seed-adjusted z-score
23 | UCUGGGAUGUCAAUCCUAATT against ST3GAL4 | inactive: 0.245
24 | CUGUUGAGCUAGCACAUUATT against FOLH1 | inactive: 0.148
25 | CCACCUCUGGAACAAGAUUTT against CAPN3 | inactive: 0.0426
26 | GGAUAGAAUAUGUAACGGUTT against SUPT6H | active: -2.54
27 | CGAGAAUACUGGAACAAUATT against CAPN2 | inactive: -0.0828
28 | CCUCCAUGAUGACUAGCGATT against TMEM8 | inactive: -0.551
29 | GCAAGGAUGUCUAAGCUAATT against SLC2A4RG | inactive: -0.0232
30 | CUGUACUUAUAGUUGCUAATT against ARL4A | inactive: -0.572
31 | GGAUCGCAGUCGAUCAAGATT against RBM25 | inactive: -0.265
32 | GCAAGGUGCGUGAGGAGUATT against TUBB3 | inactive: 0.208
33 | AUAUCACCGAUGAUACAUATT against CCNA1 | inactive: -0.203
34 | AGCUGCCUGUAGUUAGGAATT against POMC | inactive: 0.374
35 | GGAGAUCACAGACCUGAGATT against KRT15 | inactive: 0.756
36 | GGAACGGACCUACUCAACATT against EPHA7 | inactive: -0.172
37 | CGGUCGACAGGAUUCCAAATT against DDEFL1 | inactive: 0.293
38 | GGAUUAAGAACAGUCGAAATT against MPDZ | inactive: -0.398
39 | GAAGUAAACCUUUCAUUUATT against AMY2A | inactive: -0.266
40 | GAGCCUGACUGUUCACACATT against GPS2 | inactive: 0
41 | GGUCGAAUCCAGUAGAAAATT against TERF2 | inactive: 0.246
42 | CCCUGUCCUUAAUAACUUATT against ABL2 | inactive: 0.293
43 | CUACGGCAACAGACAAGAATT against MRC1 | inactive: 0.179
44 | GGACUGAAGUGGACUGGAUTT against SYTL2 | inactive: 0.211

Row | Sequence | median seed-adjusted z-score
45 | CAAAGGAGACGGAAAAGGATT against DRD3 | inactive: 0.0447
46 | CCUAGUAUCUGUAAGCGAATT against PLA2R1 | inactive: -0.0304
47 | GCCUUACUCUGAUCUGGUATT against IL1RAP | inactive: -0.23
48 | GGAGGUCUAUAUUAUAAGATT against CFHR4 | inactive: -0.0972
49 | GGAAUACGCUGAAUCCAUATT against RAB31 | inactive: 0.41
50 | GUGAAGAAGCUAAUGAAGATT against PLCXD2 | inactive: -0.0211
51 | UCUCCUAUGUGAUGCUGAATT against DPM2 | inactive: -0.419
52 | UAAUGUAUCUGUGAUGUUATT against VAPB | inactive: 0.254
53 | GUGCUGCAAAGGAUAUAAATT against CCBE1 | inactive: 0.964
54 | GGCACGGUCUGGUUCAUUUTT against ZNF580 | inactive: 0.437
55 | GGAUGCGUUUUCUGACAAATT against GPR149 | inactive: -0.186
56 | AAGUAGAACCUGCAAACAATT against DDX19B | inactive: -0.298
57 | UGAUGAAGUUUCACAAGUATT against RNMTL1 | inactive: 0.174
58 | GGAACAAUUCGUAACUAGATT against NECAB1 | inactive: 0.0268
59 | GAAGAUGUAUGGAAUUCUUTT against DARC | inactive: 0.0814
60 | CACUAUCCAUAUACGUAUUTT against AGTPBP1 | inactive: -0.201
61 | CCCAGACAAAUUACCUAUATT against CAD | active: 2.37
62 | GAAUUUACAUAUCAGACUATT against RBKS | inactive: 0.229
63 | GCUGAUCCGCUUUUCUACATT against GBGT1 | inactive: 0.48
64 | AGAUUUUCCUUGAUGCAUUTT against CA3 | inactive: -0.276
65 | CCCUUUCAGUGUAGACAAUTT against ZNF490 | inactive: 0.00954
66 | GCUGAUAUGGGAUCACGCATT against PAQR6 | inactive: 0.632

Row | Sequence | median seed-adjusted z-score
67 | GACAGAAUAUGGUUCACGATT against ROR2 | inactive: 0
68 | CGAUGGGUUGUAUAUACUATT against NDUFA12 | inactive: -0.377
69 | AGCAGAAAAUGGUCAACUATT against TWF2 | inactive: 0.303
70 | GGUAUUCAGAAACUACAAATT against GNPAT | inactive: 0.111
71 | GAGACGGACUGGUUUGAUATT against BSN | inactive: 0.116
72 | GGCUCUACCAAGUAGAAUATT against PSMA6 | inactive: -0.768
73 | UCUUUGUGGUGGACAGUAATT against ARF5 | inactive: -0.507
74 | CAGCAGAAACGGAAUGGAATT against MBNL2 | inactive: -0.675
75 | CGUCGAAAGCGGAUUCCAATT against DIAPH2 | inactive: -0.0149
76 | GGACUUCCAUCGAUUCUAUTT against CAMK2A | inactive: 0.396
77 | CACGAUAUCAUGUUACUAATT against CMA1 | inactive: -0.0475
78 | GAAGGACGAUUACUAGCAATT against GABRQ | inactive: -0.54
79 | GGAUCUAAUUAGUCGAAGATT against ARHGAP21 | inactive: 0.229
80 | AGAUCGUCCCUGUUGGUGATT against STK35 | inactive: 0.519
81 | CGAUGUUUGAUAUUGAAUATT against SIRT1 | inactive: 0
82 | GCAAAGAUAAACUACCAAATT against ADI1 | inactive: 0.0593
83 | CUCUAAAGAUGGUGGAUGATT against HPSE | inactive: 0.153
84 | CUAACCCUAUUGUUCGCAATT against PZP | inactive: -0.878
85 | CAAUCAGGAGGUUAAGGAATT against RCAN2 | inactive: -0.185
86 | AUCUACUCCUUUACUCUUATT against NAT1 | inactive: -0.0665
87 | GAUUUCUAAUUAACACAAUTT against POLR1D | inactive: -0.0409
88 | CGUGAGUACAUGAACAAGATT against UBE4A | inactive: -0.285

Row | Sequence | median seed-adjusted z-score
89 | GCCGUUGCAUCAUGGAUUATT against TNPO1 | inactive: 0.688
90 | UGCUGGUCACUUUCGAAGATT against INTS6 | inactive: -0.0163
91 | GCUCGUCUACUUCACGAAATT against CUL9 | inactive: 0.399
92 | GGUUCUGGAUUCAAGCAUATT against MTERF | inactive: 0.432
93 | GGCUUGGAGAUUUCCGGAATT against AP2B1 | inactive: -0.214
94 | CAAAGUCCAUGGAGUCUUUTT against RASA4 | active: -1.11
95 | GCAAUUACAGGCUAGUGAATT against AKAP9 | active: -1.22
96 | GGGUUUAUAUCGAACGCAATT against RNF144B | inactive: 0.642
97 | GAAUAUGGGUCAGUACAUATT against SLC26A7 | inactive: 0.561
98 | GGACUGUGCGGAGCAUGUATT against NOTCH1 | inactive: 0.116
99 | AGGAUGAAUUGGCUCGGGATT against RAB40A | inactive: 0
100 | GCAUGGUCCGGAAGGCAAATT against STK19 | inactive: -0.188
101 | CGGACGAAGAGAUUGGGAATT against DRAP1 | active: 1.08
102 | GCGUUUGACUGGAUUCGCATT against MMP21 | inactive: -0.185
103 | CGAAAGCUGUUGUUACUCATT against SRR | inactive: -0.256
104 | CAAUAUAUCGGGUGCAAGATT against PTH2R | inactive: -0.492
105 | GAGCGUGCAAUAGAAGAAATT against PPRC1 | inactive: 0
106 | CAGGUAGUGUAAGCCCUCATT against MZF1 | inactive: 0.215
107 | GCCUUUGCAGGUAUCAGAATT against LYPLA1 | inactive: 0
108 | UGAGGACAAGGAUUUGGAATT against EIF2S2 | inactive: 0.576

Pulled one by one from the list above, 5 records:
Row | Sequence | median seed-adjusted z-score
17 | CUCUGGUGGUGGACGUUAATT against TYMP | inactive: -0.249
67 | GACAGAAUAUGGUUCACGATT against ROR2 | inactive: 0
89 | GCCGUUGCAUCAUGGAUUATT against TNPO1 | inactive: 0.688
3 | GGUCAAAUGAAGAUAGAUUTT against MOV10L1 | inactive: -0.0497
43 | CUACGGCAACAGACAAGAATT against MRC1 | inactive: 0.179
